Assay results published in PMC10698143.
No constants are given. Whether binding was seen depends on the method and setting. Binding seen in cells or lysates may run through a third protein. Some binding calls cover weakened binding; strength is not graded here.

Molecular target: T1, Macrophage migration inhibitory factor (MIF) (human (endogenous in RCTE)) (UniProt P14174)
T1 sequence: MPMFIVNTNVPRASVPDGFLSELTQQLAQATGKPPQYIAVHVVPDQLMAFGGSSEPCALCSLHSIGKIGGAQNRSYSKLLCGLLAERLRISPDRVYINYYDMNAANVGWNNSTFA
Experiment: co-IP; endogenous proteins, RCTE cell lysates; anti-MIF or anti-PIP4K2a antibody on protein A agarose, 4 °C overnight, washed with lysis buffer with additional 300 mM NaCl, Western blot; also after PIP4K2a siRNA (less MIF with 14-3-3ζ) and GFP-PIP4K2a overexpression (more)

binding: binds
B1: phosphatidylinositol-5-phosphate 4-kinase type 2 alpha (PIP4K2a) (enzyme, UniProt P48426 1-406)
chain: MATPGNLGSSVLASKTKTKKKHFVAQKVKLFRASDPLLSVLMWGVNHSINELSHVQIPVMLMPDDFKAYSKIKVDNHLFNKENMPSHFKFKEYCPMVFRNLRERFGIDDQDFQNSLTRSAPLPNDSQARSGARFHTSYDKRYIIKTITSEDVAEMHNILKKYHQYIVECHGITLLPQFLGMYRLNVDGVEIYVIVTRNVFSHRLSVYRKYDLKGSTVAREASDKEKAKELPTLKDNDFINEGQKIYIDDNNKKVFLEKLKKDVEFLAQLKLMDYSLLVGIHDVERAEQEEVECEENDGEEEGESDGTHPVGTPPDSPGNTLNSSPPLAPGEFDPNIDVYGIKCHENSPRKEVYFMAIIDILTHYDAKKKAAHAAKTVKHGAGAEISTVNPEQYSKRFLDFIGHILT
